Reference: US20250026805A1 (DUCENTIS BIOTHERAPEUTICS, published 2025)
These are yes or no findings as the source states them, for the method shown. Some entries that bind do so weakly or less than the wild type. Tags and fused reporters may be left off the sequences shown.

Molecular target: T1, Recombinant Human CD200R, His tagged (human) (UniProt Q8TD46)
T1 sequence (looked up): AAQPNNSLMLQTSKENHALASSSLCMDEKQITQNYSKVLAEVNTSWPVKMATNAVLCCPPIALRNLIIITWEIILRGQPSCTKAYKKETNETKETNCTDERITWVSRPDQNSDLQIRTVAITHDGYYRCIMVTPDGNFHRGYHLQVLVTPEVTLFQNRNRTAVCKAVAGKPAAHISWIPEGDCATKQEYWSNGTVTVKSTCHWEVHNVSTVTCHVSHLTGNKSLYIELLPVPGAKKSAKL
Test: SPR (Biacore T200)

Binder	binding
DS-161 mutant CD200-Fc fusion protein (K130F, IgG2 Fc) (Fc fusion, Purified as the dimeric form) QVQVVTQDEREQLYTPASLKCSLQNAQEALIVTWQKKKAVSPENMVTFSENHGVVIQPAYKDKINITQLGLQNSTITFWNITLEDEGCYMCLFNTFGFGFISGTACLTVYVQPIVSLHYKFSEDHLNITCSATARPAPMVFWKVPRSGIENSTVTLSHPNGTTSVTSILHIKDPKNQVGKEVICQVLHLGTVTDFKQTVNKGERKCCVECPPCPAPPVAGPSVFLFPPKPKDTLMISRTPEVTCVVVDVSHEDPEVQFNWYVDGVEVHNAKTKPREEQFNSTFRVVSVLTVVHQDWLNGKEYKCKVSNKGLPAPIEKTISKTKGQPREPQVYTLPPSREEMTKNQVSLTCLVKGFYPSDISVEWESNGQPENNYKTTPPMLDSDGSFFLYSKLTVDKSRWQQGNVFSCSVMHEALHNHYTQKSLSLSPGK	binds
DS-162 mutant CD200-Fc fusion protein (I131F, IgG2 Fc) (Fc fusion, Purified as the dimeric form) QVQVVTQDEREQLYTPASLKCSLQNAQEALIVTWQKKKAVSPENMVTFSENHGVVIQPAYKDKINITQLGLQNSTITFWNITLEDEGCYMCLFNTFGFGKFSGTACLTVYVQPIVSLHYKFSEDHLNITCSATARPAPMVFWKVPRSGIENSTVTLSHPNGTTSVTSILHIKDPKNQVGKEVICQVLHLGTVTDFKQTVNKGERKCCVECPPCPAPPVAGPSVFLFPPKPKDTLMISRTPEVTCVVVDVSHEDPEVQFNWYVDGVEVHNAKTKPREEQFNSTFRVVSVLTVVHQDWLNGKEYKCKVSNKGLPAPIEKTISKTKGQPREPQVYTLPPSREEMTKNQVSLTCLVKGFYPSDISVEWESNGQPENNYKTTPPMLDSDGSFFLYSKLTVDKSRWQQGNVFSCSVMHEALHNHYTQKSLSLSPGK	binds
